Experimental data from the supplement of paper PMC6078165.
Values are relative to the signal before dosing, not to a vehicle control; the signal also falls without drug.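 Fibroblast labels denote human fibroblasts, mainly primary ones from uterus (C12385, HUF), lung (H6013), bone (Hs27A), adrenal (HADF) and skin (WS1), plus mammary HMF and breast cancer-associated Hs343T. Cancer cells are basal-like or mesenchymal-like triple-negative breast cancer lines. A hit is a response shift exceeding 3x replicate standard deviation. The tissue of the other fibroblasts is not given here.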

System: MDAMB436
Assay: relative JC-1 red fluorescence (viability) vs pre-drug, coculture with fibroblast (fraction); higher = more viable cancer cells
Experimental: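 JC-1 labelled TNBC cells cocultured 1:1 (1,500 cells each) with CellTrace Violet stained primary or stromal fibroblasts in 384-well plates in FluoroBrite medium, treated with one of 42 anticancer drugs at 0.1, 1, 10 or 100 uM. JC-1 red fluorescence (mitochondrial integrity in cancer cells only) was read by plate reader every 8 h for 72 h. Values are normalised to each well's pre-drug value. The stock of one drug was tenfold lower, so its dose labels may be too high.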

CC/C(=C(\c1ccccc1)c1ccc(OCCN(C)C)cc1)c1ccccc1 [Tamoxifen]
relative JC-1 red fluorescence
Details	8 h	16 h	24 h	32 h	40 h	48 h	56 h	64 h	72 h
0.1 µM, coculture fibroblast: C12385	0.8223	0.664	0.6697	0.592	0.554	0.531	0.523	0.51	0.511
0.1 µM, coculture fibroblast: H6013	0.863	0.75	0.747	0.73	0.7096	0.7303	0.6899	0.6714	0.6306
0.1 µM, coculture fibroblast: H6019	0.719	0.624	0.607	0.534	0.5	0.478	0.441	0.41	0.38
0.1 µM, coculture fibroblast: H6076	0.764	0.686	0.661	0.615	0.594	0.5674	0.568	0.555	0.541
0.1 µM, coculture fibroblast: H6231	0.743	0.649	0.6349	0.564	0.5451	0.514	0.499	0.47	0.442
0.1 µM, coculture fibroblast: HADF	0.8112	0.713	0.693	0.6617	0.634	0.639	0.592	0.581	0.54
0.1 µM, coculture fibroblast: HCFa	0.873	0.809	0.793	0.785	0.769	0.793	0.735	0.717	0.657
0.1 µM, coculture fibroblast: HCPF	0.801	0.747	0.752	0.709	0.708	0.675	0.662	0.638	0.622
0.1 µM, coculture fibroblast: HHSteC	0.83	0.7518	0.719	0.688	0.666	0.682	0.618	0.592	0.528
0.1 µM, coculture fibroblast: HMF	0.786	0.662	0.609	0.56	0.538	0.5	0.495	0.475	0.465
0.1 µM, coculture fibroblast: HPFa	0.867	0.795	0.73	0.676	0.644	0.637	0.555	0.519	0.442
0.1 µM, coculture fibroblast: HUF	0.857	0.748	0.745	0.661	0.615	0.589	0.571	0.564	0.565
0.1 µM, coculture fibroblast: Hs5	0.794	0.697	0.681	0.633	0.6188	0.5812	0.586	0.5526	0.542
0.1 µM, coculture fibroblast: Hs27A	0.8082	0.741	0.712	0.697	0.667	0.713	0.619	0.598	0.525
0.1 µM, coculture fibroblast: Hs343T	0.7848	0.683	0.63	0.577	0.542	0.5058	0.487	0.4704	0.4561
0.1 µM, coculture fibroblast: WS1	0.789	0.6631	0.633	0.549	0.5037	0.482	0.4569	0.428	0.4196
1 µM, coculture fibroblast: C12385	0.8232	0.7024	0.6982	0.622	0.5656	–	–	–	–
1 µM, coculture fibroblast: H6013	0.92	0.852	0.858	0.862	0.852	–	–	–	–
1 µM, coculture fibroblast: H6019	0.7714	0.7092	0.705	0.633	0.592	–	–	–	–
1 µM, coculture fibroblast: H6076	0.791	0.755	0.764	0.716	0.684	–	–	–	–
1 µM, coculture fibroblast: H6231	0.814	0.741	0.76	0.6879	0.65237	–	–	–	–
1 µM, coculture fibroblast: HADF	0.848	0.74	0.712	0.675	0.652	–	–	–	–
1 µM, coculture fibroblast: HCFa	0.838	0.744	0.729	0.68	0.655	–	–	–	–
1 µM, coculture fibroblast: HCPF	0.828	0.739	0.7701	0.7149	0.68	–	–	–	–
1 µM, coculture fibroblast: HHSteC	0.911	0.857	0.838	0.799	–	–	–	–	–
1 µM, coculture fibroblast: HMF	0.812	0.7377	0.759	0.712	–	–	–	–	–
1 µM, coculture fibroblast: HPFa	0.909	0.831	0.801	0.754	–	–	–	–	–
1 µM, coculture fibroblast: HUF	0.857	0.768	0.739	0.655	–	–	–	–	–
1 µM, coculture fibroblast: Hs5	0.7968	0.7755	0.7675	0.706	–	–	–	–	–
1 µM, coculture fibroblast: Hs27A	0.887	0.841	0.802	0.754	–	–	–	–	–
1 µM, coculture fibroblast: Hs343T	0.825	0.753	0.746	0.7	–	–	–	–	–
1 µM, coculture fibroblast: WS1	0.8026	0.731	0.74	0.671	–	–	–	–	–
